Molecules are shown by their SMILES. Some of the results follow. The main result of the screen is listed elsewhere. These columns were measured beside it and carry no call. Most of these compounds were active or inconclusive in the main read-out, so they are no random draw. The note in brackets gives the kind of curve behind each potency; many fits are weak.

Broadly, the AC50 is the concentration at which the activity in the assay is half-maximal.

A short description of this assay: qHTS Assay to Find Inhibitors of Chronic Active B-Cell Receptor Signaling. To be noted: ABC-DLBCL IkBa-CBG/CBR reporter, luminescence ratio (green luciferase fused to IkBa over red control in TMD8 lymphoma cells), 4 h. The essentials:
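Doxycycline induced both beetle luciferases in TMD8 lymphoma cells; IKK-driven degradation limits the IkappaBalpha-fused green signal, while red luminescence normalises for cell number and nonspecific effects. Compounds tested up to 46 uM, 4 hrs.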
(In general: qHTS replaces the single test concentration by a dilution series.)

Setting [1] is: measured here: CBR red luminescence, cell number.
The mark [2] stands for this setting: measured here: IkBa-CBG green luminescence.

As for `Cc1c(/C=C/C(=O)c2ccc(C(C)C)cc2)cnn1C`, the concentration at half-maximal activity (AC50) under setting [1] is 0.316 µM [rising, full curve, poor fit].
Still for that read-out and setting: as for `CC(=O)Nc1ccc(-n2c(C)nc(=O)c(-c3ccccc3)c2C)cc1`, the figure is 1.64 µM [rising, partial curve, poor fit]; as for `O=C(c1ccc(Cl)c(Cl)c1)c1cc(-c2ccccn2)c(N2CCOCC2)s1`, 0.794 µM [falling, full curve]; as for `COc1ccc(OCC2c3cc(OC)c(OC)cc3CCN2C(=O)c2c(F)cccc2F)cc1` (stereo unspecified), 0.708 µM [rising, partial curve, poor fit].
Still for that read-out and setting: as for `CCOc1cc(C2C(C#N)=C(N)Oc3n[nH]c(-c4ccccc4)c32)ccc1O` (stereo unspecified), the figure is 12.6 µM [falling, partial curve]; as for `O=C(CCc1nc2ccccc2s1)OCC(=O)c1ccc[nH]1`, 11.2 µM [rising, partial curve, poor fit].
With `COc1ccc(-c2c(-c3ccc(O)cc3O)n[nH]c2C(F)(F)F)cc1`, the half-maximal activity concentration (AC50) under setting [1] was 12.6 µM [falling, partial curve, poor fit].
Same read-out and setting: in the case of `CCOC(=O)C1CCN(CCC(=O)Nc2cccc(Cl)c2)CC1` it was 6.31 µM [falling, partial curve, poor fit].
The same measure, in the same setting: in the case of `Cc1c(C(=O)Nc2ccc(S(=O)(=O)N(C)C3CCN(C)CC3)cc2)oc2ccccc12` it was 25.9 µM [falling, single point]; in that of `CN(C)c1cc(-c2ccc([N+](=O)[O-])cc2)oc(=O)c1Cl`, 3.55 µM [falling, single point].
On to `COc1cccc(CN2c3ccc(Br)cc3C(=O)CS2(=O)=O)c1`, for which, under setting [2], the concentration at half-maximal activity (AC50) was 8.2 µM [falling, partial curve, poor fit].
For `C=CCn1c(=O)c2ccccc2n2c(SCC(=O)Nc3cc(C)on3)nnc12`, the AC50 under setting [1] is 23.1 µM [rising, single point].
On the same count and under the same terms, as for `N/C(=N\OC(=O)c1ccccc1F)c1cccc([N+](=O)[O-])c1`, the figure is 0.562 µM [rising, full curve, poor fit]; as for `CCN1CCN(c2nc(Nc3cccc(C)c3)nc(N)c2[N+](=O)[O-])CC1`, 0.517 µM [rising, full curve].
Same read-out and setting: as for `O=S(=O)(NCc1csc(-c2cccs2)n1)c1cccs1`, the figure is 3.98 µM [rising, partial curve, poor fit]; as for `CC(C)OCCCNC(=S)Nc1ccc(S(N)(=O)=O)cc1`, 1.84 µM [falling, partial curve, poor fit].
The same measure, in the same setting: as for `O=C(O)CCC(=O)c1ccc2c(c1)CCCC2`, the figure is 11.2 µM [falling, partial curve].
With `Cc1ccccc1OCc1nc2ccccc2c(=O)n1/N=C/c1cn[nH]c1-c1ccc(Br)cc1`, the AC50 under setting [1] was 6.51 µM [rising, full curve].
As to `OCc1nc2nc(Cl)c(Cl)nc2[nH]1`, the AC50 under setting [1] was 10 µM [falling, partial curve].
Take `C/C(N)=C(/C#N)C(=O)CSc1nc2cc(Cl)ccc2c(=O)n1Cc1ccco1`: under setting [1], the AC50 is 8.91 µM [falling, partial curve].
The same measure, in the same setting: as for `COc1cc(/C=C/C(=O)OCC(=O)NC(=O)NC(C)(C)C)ccc1OCC#N`, the figure is 2.06 µM [falling, partial curve, poor fit].
`COc1ccc2c(c1)sc1nc(-c3ccccc3)cn12`: the AC50 under setting [1] was 12.6 µM [falling, partial curve] and the AC50 under setting [2] was 10 µM [falling, partial curve].
With `c1cncc(-c2nc(NCc3ccc4c(c3)OCO4)c3ccccc3n2)c1`, under setting [1], the AC50 was 14.1 µM [falling, partial curve].
Still for that read-out and setting: in the case of `O=C(Nc1ccccc1)c1ccc(Nc2c([N+](=O)[O-])cc([N+](=O)[O-])c3ccccc23)cc1` it was 6.51 µM [rising, partial curve, poor fit]; in that of `C=CCN(CC=C)C(=O)COC(=O)c1n[nH]c2ccccc12`, 11.2 µM [falling, partial curve]; in that of `CN1C(=O)C(O)(CC(=O)/C=C/c2ccco2)c2ccccc21` (stereo unspecified), 35.5 µM [falling, partial curve, poor fit].
Same read-out and setting: in the case of `CCOC(=O)c1c(-c2ccc(C)s2)csc1NC(=O)c1cccs1` it was 14.6 µM [rising, single point]; in that of `O=C(NCCOc1ccccc1Cl)c1cc(F)c(F)cc1Cl`, 3.16 µM [rising, full curve]; in that of `CSc1ccccc1NC(=O)CN(C)C(C)C(=O)NC(=O)NC1CCCCC1` (stereo unspecified), 29.1 µM [falling, single point].
On the same count and under the same terms, as for `CN(C)c1ccc(/C=N/N=C2/NC(=O)/C(=C/c3ccc([N+](=O)[O-])cc3)S2)cc1`, the figure is 0.0891 µM [falling, full curve, poor fit]; as for `Cc1cc(C)cc(NC(=O)CCn2c(=O)c3cccn3c3ccccc32)c1`, 22.4 µM [falling, single point]; as for `COC(=O)[C@]1(Cc2ccccc2)N[C@H](c2ccc(-c3ccccc3)cc2)[C@@H]2C(=O)N(C)C(=O)[C@@H]21`, 20.6 µM [falling, single point].
With `COc1ccccc1CNc1nc2nc(C)c(Cl)c(=O)n2[nH]1`, the half-maximal activity concentration (AC50) under setting [1] is 5.8 µM [falling, partial curve].
On the same count and under the same terms, as for `CCOC(=O)c1cccc(NC(=O)CCn2nnc3ccccc32)c1`, the figure is 6.51 µM [rising, partial curve, poor fit]; as for `Cc1nc(SCC(=O)Nc2nc3ccccc3s2)c(C#N)c(C)c1C`, 0.651 µM [falling, full curve, poor fit].
In the case of `COc1cccc(CC(Cc2nc3ccccc3[nH]2)c2nc3ccccc3[nH]2)c1` (stereo unspecified), the half-maximal activity concentration (AC50) under setting [1] is 35.5 µM [falling, single point].
The same measure, in the same setting: in the case of `COc1cc2c(cc1OC)C(c1cc3cc4c(cc3[nH]c1=O)OCO4)N(C(=O)C1CC1)CC2` (stereo unspecified) it was 32.6 µM [falling, partial curve, poor fit]; in that of `CSc1ccc(-c2cc(=O)c3ccccc3o2)cc1`, 0.731 µM [rising, partial curve, poor fit]; in that of `CC(=O)Nc1ccc(OCc2nnc(-c3ccccc3)o2)cc1`, 7.94 µM [rising, partial curve, poor fit].
Still for that read-out and setting: as for `Cc1ccnc(NC(c2ccsc2)c2ccc3ccc(C)nc3c2O)c1` (stereo unspecified), the figure is 3.55 µM [falling, full curve].
Consider `COc1ccc(CC2=CC(=O)c3ccccc3C2=O)cc1`, for which the half-maximal activity concentration (AC50) is 11.2 µM [falling, partial curve] under setting [1] and 3.98 µM [falling, single point] under setting [2].
For the molecule `CCCCC(c1nnnn1CS(=O)(=O)c1ccc(C)cc1)N1CCN(C)CC1` (stereo unspecified), the AC50 under setting [1] is 35.5 µM [falling, single point].
For the molecule `O=c1[nH]c(=O)n([C@H]2C[C@H](O)[C@@H](CO)O2)cc1Br`, the half-maximal activity concentration (AC50) under setting [1] was 32.6 µM [rising, single point].
For the molecule `COc1ccc(Br)c(C(=O)OCC(=O)NC(=O)NC2CCCC2)c1`, the AC50 under setting [1] was 4.11 µM [falling, single point].
As to `CCc1nnc(NC(=O)c2ccc(OCc3c(C)noc3C)c(OC)c2)s1`, under setting [1], the half-maximal activity concentration (AC50) was 0.708 µM [falling, full curve].
Turning to `COC1=C(N)C(=O)c2nc(-c3nc(C(=O)O)c(C)c(-c4ccc(OC)c(OC)c4O)c3N)ccc2C1=O`, the AC50 under setting [2] is 1.12 µM [rising, full curve].
On to `O=C(Nc1ccc(F)cc1)c1csc(Cc2ccccc2)n1`, for which the AC50 under setting [1] was 25.1 µM [falling, partial curve, poor fit].
With `Cc1cc2c(c(C)c1Br)C(c1ccc3c(c1)OCO3)CC(=O)O2` (stereo unspecified), the AC50 under setting [1] was 29.1 µM [rising, single point].
For `CN(C)c1ccc(/C=N/Nc2cccc(C(=O)O)c2)cc1`, the AC50 under setting [1] was 14.1 µM [falling, partial curve, poor fit].
On the same count and under the same terms, in the case of `CC/C(=N\NC(=O)c1ccoc1C)c1ccc(C)o1` it was 6.51 µM [falling, partial curve, poor fit]; in that of `CCCCC(=O)Nc1ccc(C(=O)N2CCN(C)CC2)cc1`, 29.1 µM [rising, single point].
Still for that read-out and setting: as for `CCc1c(C)sc(NC(=O)OC)c1C(N)=O`, the figure is 22.4 µM [rising, single point].
Consider `CCN(CC)C(=O)c1[nH]cnc1C(=O)N[C@@H](CCCCNC(=O)OC(C)(C)C)C(=O)OC(C)(C)C`, for which, under setting [1], the AC50 was 2.82 µM [rising, full curve, poor fit].
Consider `COc1ccc(OC)c(NC(=O)COc2ccc(Br)cc2)c1`, for which, under setting [1], the AC50 was 6.31 µM [rising, full curve, poor fit].
As for `O=C(Nc1nc2c(F)c(F)c(F)cc2s1)c1ccco1`, the concentration at half-maximal activity (AC50) under setting [1] was 5.62 µM [falling, full curve, poor fit].
Take `CC1CN(C(=O)c2ccccc2C(=O)c2ncc[nH]2)CC(C)O1` (stereo unspecified): the AC50 under setting [1] was 35.5 µM [falling, single point].
On the same count and under the same terms, as for `COc1ccc(/C=N/NC(=O)c2ccc3nc[nH]c3c2)cc1OC`, the figure is 11.2 µM [falling, single point]; as for `CCOc1ccccc1N1CCN(C(=O)Nc2cccc(Cl)c2)CC1`, 29.1 µM [rising, single point]; as for `O=C1CCCC/C1=C/Nc1ccc2c(c1)OCO2`, 6.31 µM [rising, single point].
As to `O=C(CCc1nc(-c2ccccc2)no1)Nc1cc(C(F)(F)F)ccc1Cl`, under setting [1], the half-maximal activity concentration (AC50) is 22.4 µM [rising, single point].
Regarding `COc1ccc(NC(=O)C2C3C=CC4(O3)C2C(=O)N(CCN2CCCCC2C)C4C(=O)NC2CCCC(C)C2C)cc1` (stereo unspecified), under setting [1], the concentration at half-maximal activity (AC50) was 14.1 µM [rising, partial curve, poor fit].
On the same count and under the same terms, in the case of `O=C(NC(=S)Nc1ccc(Cc2ccncc2)cc1)c1ccccc1F` it was 35.5 µM [falling, single point].
`COc1ccc(CCNC(=O)c2cc(=O)[nH]c3ccc(S(=O)(=O)N4CCCCC4C)cc23)cc1OC` (stereo unspecified): the AC50 runs as follows: under setting [1], 0.1 µM [rising, full curve, poor fit]; under setting [2], 11.2 µM [falling, single point].

Values taken from PubChem BioAssay AID493014 (National Center for Advancing Translational Sciences (NCATS), 2011).
